The other results are listed elsewhere or left out.
Compound: CCN(CC)Cc1ccc2cc(COC(=O)Nc3ccc(C(=O)NO)cc3)ccc2c1 [givinostat]
Test: log2 fold change, soluble protein after heating vs DMSO (PISA); higher = thermal stabilisation; K562 cells, 10 uM, 30 min; active = over 0.2 and 3.5 SD of the protein, either way, in both replicates (recomputed)
Outline: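 K562 cells at 2×10^6 cells/mL were given 10 μM compound for 30 min. Aliquots then went through 3 min of heating across 48°C-58°C, were pooled, and were extracted in PBS with 0.5% NP-40 at 4°C, and the supernatant after 21,000xg for 90 min was quantified by TMTpro 16plex LC-MS/MS with channel sums equalised. Thermal stability relative to control samples, from duplicates, is given as log2 fold change.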

Protein sequences, listed by entry. Tags and fused reporters are not part of them. Lines headed by an entry give the natural chain unless they say otherwise; changes in a name come on top.
UniProt Q15831: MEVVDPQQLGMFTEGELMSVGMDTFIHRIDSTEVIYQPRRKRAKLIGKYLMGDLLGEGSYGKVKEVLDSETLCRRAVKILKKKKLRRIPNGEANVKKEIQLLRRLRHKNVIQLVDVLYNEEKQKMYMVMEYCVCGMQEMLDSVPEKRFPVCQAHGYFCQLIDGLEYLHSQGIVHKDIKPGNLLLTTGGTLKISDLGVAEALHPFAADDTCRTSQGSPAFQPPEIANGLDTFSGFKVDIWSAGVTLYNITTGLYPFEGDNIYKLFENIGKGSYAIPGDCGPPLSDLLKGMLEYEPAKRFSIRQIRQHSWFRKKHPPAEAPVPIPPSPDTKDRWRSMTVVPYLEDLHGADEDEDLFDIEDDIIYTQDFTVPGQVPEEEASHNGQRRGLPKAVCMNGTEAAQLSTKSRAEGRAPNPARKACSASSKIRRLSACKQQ
UniProt Q9BUA3: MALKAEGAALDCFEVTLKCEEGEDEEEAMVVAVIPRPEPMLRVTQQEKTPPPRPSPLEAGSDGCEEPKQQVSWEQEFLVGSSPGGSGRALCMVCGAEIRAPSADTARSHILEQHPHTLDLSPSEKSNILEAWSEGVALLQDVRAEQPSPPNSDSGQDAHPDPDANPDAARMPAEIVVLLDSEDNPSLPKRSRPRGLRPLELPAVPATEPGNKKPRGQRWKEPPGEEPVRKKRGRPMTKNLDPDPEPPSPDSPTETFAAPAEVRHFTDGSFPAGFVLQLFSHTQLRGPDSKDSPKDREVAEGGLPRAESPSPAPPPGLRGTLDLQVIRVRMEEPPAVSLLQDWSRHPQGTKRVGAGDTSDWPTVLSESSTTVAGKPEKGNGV
UniProt Q16842: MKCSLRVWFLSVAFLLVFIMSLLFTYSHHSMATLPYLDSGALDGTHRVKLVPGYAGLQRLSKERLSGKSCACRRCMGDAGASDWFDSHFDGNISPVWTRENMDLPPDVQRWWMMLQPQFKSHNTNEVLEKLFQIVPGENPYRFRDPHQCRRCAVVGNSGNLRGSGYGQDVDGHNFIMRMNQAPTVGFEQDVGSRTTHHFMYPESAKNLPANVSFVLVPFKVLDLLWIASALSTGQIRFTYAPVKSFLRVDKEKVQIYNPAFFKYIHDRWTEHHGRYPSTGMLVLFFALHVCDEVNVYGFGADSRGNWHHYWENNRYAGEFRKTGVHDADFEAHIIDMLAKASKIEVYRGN
UniProt P08240: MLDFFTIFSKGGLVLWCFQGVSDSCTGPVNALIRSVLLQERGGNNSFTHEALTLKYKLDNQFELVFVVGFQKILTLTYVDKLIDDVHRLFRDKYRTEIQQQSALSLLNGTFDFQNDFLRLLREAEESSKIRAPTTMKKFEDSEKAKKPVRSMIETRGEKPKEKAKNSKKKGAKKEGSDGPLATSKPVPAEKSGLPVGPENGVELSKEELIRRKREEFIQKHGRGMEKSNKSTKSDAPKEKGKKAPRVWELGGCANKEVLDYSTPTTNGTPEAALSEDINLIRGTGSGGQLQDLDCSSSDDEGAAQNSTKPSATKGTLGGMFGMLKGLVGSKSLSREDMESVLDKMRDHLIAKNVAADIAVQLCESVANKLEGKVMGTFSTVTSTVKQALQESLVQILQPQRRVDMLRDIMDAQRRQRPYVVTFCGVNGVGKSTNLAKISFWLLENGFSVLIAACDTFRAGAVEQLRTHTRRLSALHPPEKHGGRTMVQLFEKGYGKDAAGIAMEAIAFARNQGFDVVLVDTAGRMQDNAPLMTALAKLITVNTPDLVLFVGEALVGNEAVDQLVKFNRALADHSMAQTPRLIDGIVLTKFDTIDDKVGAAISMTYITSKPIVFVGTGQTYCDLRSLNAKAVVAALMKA
UniProt O15020, whole entry, looked up: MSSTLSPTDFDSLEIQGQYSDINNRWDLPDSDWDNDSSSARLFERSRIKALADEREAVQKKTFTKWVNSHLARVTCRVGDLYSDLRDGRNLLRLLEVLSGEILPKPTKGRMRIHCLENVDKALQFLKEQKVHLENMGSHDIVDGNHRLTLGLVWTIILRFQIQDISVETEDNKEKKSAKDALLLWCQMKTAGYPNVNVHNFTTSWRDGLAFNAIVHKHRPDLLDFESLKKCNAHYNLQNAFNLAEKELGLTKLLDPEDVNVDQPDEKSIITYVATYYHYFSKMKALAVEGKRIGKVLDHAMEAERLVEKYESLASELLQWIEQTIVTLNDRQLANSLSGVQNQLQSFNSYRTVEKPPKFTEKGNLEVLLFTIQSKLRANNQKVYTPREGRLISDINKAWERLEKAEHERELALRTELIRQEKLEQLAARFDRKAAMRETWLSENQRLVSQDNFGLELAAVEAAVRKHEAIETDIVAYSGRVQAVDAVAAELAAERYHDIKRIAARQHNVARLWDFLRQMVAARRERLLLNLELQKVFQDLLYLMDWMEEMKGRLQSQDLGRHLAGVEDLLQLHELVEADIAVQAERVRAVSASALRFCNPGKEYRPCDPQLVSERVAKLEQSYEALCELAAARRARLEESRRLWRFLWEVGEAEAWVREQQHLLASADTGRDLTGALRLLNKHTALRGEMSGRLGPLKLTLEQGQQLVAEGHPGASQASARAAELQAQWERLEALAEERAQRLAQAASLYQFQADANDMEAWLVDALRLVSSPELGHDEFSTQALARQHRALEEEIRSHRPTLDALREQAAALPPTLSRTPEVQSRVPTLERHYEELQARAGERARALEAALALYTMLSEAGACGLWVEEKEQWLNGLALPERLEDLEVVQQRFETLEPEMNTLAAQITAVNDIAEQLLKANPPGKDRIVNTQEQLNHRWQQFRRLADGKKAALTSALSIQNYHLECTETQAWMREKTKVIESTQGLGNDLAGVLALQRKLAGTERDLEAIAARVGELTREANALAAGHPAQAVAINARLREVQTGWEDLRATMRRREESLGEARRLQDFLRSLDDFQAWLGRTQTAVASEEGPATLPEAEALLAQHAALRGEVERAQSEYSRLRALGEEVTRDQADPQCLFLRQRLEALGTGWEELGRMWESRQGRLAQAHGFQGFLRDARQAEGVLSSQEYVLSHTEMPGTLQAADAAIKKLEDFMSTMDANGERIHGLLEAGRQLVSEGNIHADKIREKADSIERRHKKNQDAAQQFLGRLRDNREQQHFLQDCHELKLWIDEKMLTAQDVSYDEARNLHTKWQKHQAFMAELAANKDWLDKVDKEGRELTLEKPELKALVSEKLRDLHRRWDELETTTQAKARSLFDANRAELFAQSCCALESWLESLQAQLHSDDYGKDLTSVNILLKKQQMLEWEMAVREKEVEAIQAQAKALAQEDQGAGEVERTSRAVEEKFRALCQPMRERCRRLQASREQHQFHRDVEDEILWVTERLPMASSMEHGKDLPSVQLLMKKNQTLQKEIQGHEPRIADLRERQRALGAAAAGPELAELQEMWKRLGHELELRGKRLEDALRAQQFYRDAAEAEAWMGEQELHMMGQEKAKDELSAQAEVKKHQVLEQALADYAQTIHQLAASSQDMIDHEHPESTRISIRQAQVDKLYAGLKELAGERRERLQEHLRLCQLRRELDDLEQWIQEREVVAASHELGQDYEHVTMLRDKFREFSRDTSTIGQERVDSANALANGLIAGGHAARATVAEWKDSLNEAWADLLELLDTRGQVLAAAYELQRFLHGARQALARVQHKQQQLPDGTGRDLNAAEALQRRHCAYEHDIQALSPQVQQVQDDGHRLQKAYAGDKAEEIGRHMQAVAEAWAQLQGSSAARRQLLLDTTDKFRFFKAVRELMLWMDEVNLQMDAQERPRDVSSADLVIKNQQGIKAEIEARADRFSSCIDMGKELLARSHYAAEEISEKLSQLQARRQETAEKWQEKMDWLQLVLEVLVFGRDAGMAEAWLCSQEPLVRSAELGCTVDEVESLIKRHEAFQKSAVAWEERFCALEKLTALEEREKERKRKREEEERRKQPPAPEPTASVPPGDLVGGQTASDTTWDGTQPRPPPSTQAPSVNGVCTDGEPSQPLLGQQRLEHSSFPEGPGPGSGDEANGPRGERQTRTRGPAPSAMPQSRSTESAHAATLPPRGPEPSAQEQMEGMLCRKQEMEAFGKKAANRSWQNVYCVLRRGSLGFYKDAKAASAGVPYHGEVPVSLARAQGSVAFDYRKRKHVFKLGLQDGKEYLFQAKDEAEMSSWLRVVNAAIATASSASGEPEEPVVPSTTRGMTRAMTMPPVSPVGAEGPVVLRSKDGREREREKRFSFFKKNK
UniProt Q01130: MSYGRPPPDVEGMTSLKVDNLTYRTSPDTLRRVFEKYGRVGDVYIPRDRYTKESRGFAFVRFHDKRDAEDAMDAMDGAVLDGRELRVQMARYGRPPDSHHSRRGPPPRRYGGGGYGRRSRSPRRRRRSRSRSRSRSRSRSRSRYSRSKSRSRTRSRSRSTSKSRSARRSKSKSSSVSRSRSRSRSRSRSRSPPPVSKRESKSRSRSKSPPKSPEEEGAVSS
UniProt P19623: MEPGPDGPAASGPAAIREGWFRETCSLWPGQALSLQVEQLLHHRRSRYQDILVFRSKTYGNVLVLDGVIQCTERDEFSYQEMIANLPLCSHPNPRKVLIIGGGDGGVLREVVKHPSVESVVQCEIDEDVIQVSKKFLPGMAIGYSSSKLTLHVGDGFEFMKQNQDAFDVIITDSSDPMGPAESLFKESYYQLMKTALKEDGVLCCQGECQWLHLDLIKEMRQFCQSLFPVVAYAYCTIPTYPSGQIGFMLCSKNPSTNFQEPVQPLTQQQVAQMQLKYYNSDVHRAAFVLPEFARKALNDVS
UniProt Q8WXA9: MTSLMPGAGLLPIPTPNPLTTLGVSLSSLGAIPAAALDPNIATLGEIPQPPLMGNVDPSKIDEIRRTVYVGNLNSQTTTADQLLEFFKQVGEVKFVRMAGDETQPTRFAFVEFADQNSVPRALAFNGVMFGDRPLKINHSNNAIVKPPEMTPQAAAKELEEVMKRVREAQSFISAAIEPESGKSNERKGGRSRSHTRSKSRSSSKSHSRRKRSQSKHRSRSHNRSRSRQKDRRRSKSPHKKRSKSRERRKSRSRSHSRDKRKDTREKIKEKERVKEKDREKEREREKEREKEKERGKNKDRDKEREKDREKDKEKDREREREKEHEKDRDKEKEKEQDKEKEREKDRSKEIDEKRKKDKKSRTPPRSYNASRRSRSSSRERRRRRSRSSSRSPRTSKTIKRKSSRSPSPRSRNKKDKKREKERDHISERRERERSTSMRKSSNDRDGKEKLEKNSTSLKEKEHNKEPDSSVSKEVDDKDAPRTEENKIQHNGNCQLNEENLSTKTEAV
UniProt O76094: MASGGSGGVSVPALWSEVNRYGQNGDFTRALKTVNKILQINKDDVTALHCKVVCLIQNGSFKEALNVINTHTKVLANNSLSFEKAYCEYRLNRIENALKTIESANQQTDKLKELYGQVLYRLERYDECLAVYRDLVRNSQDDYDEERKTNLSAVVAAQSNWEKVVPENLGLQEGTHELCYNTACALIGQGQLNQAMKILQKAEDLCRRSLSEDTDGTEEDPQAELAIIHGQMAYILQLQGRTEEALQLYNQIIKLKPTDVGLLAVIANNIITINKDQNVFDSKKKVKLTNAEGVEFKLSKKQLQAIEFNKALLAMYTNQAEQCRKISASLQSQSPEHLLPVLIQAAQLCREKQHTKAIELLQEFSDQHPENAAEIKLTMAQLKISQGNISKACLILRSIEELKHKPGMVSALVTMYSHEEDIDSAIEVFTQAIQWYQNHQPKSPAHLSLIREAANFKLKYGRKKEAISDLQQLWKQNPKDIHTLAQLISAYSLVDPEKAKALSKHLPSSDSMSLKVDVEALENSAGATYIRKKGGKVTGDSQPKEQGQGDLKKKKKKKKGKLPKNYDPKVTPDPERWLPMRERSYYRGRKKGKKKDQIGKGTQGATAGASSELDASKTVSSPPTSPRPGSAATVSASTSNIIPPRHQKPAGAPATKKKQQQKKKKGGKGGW
UniProt Q9NRC1: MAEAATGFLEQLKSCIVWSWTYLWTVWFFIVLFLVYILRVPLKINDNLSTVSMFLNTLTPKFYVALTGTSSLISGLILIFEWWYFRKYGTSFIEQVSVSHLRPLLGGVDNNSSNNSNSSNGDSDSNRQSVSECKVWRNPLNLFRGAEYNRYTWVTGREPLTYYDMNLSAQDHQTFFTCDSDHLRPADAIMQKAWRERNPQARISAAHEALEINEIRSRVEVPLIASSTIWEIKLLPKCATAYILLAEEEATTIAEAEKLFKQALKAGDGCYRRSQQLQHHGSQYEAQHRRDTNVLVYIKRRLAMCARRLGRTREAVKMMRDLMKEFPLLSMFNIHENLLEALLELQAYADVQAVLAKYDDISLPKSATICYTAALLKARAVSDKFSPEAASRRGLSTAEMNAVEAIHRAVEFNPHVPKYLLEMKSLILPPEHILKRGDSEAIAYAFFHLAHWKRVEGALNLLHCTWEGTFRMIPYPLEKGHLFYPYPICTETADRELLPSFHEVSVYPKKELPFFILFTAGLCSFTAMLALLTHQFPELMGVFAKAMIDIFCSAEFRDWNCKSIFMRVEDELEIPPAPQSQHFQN

log2 fold change, inactive:
SQSTM1 (UniProt Q13501) -0.027
STK11 (UniProt Q15831) -0.055
STARD3 (UniProt Q14849) 0.011
SPINDOC (UniProt Q9BUA3) -0.127
ST3GAL2 (UniProt Q16842) 0.078
SPCS1, A0A5F9YFS9 -0.044
SRPRA (UniProt P08240) 0.018
SPTBN2 (UniProt O15020) 0.211
SRSF2 (UniProt Q01130) 0.005
SRM (UniProt P19623) -0.038
SREK1 isoform 2 (UniProt Q8WXA9) 0.062
SRP72 (UniProt O76094) 0.143
SRP54 (UniProt P61011) 0.025
ST7 (UniProt Q9NRC1) 0.189

Not a retest: an excerpt of the list.
log2 fold change, inactive:
SRM (UniProt P19623) -0.038
SREK1 isoform 2 (UniProt Q8WXA9) 0.062

— the supplement of paper PMC10849652
